Results are given in words; binding and its absence hold for the method and conditions named. Some results given as binding are weak or reduced against the parent protein; the word gives no strength. Where no end group is shown, it is not given here.
Legend:
formyl peptide receptor [1] = target: T1, formyl peptide receptor (UniProt P21462 1-350, limits assumed); experiment: summary of the displacement assay on FPR-expressing RBL-2H3 cells
T1 sequence (looked up): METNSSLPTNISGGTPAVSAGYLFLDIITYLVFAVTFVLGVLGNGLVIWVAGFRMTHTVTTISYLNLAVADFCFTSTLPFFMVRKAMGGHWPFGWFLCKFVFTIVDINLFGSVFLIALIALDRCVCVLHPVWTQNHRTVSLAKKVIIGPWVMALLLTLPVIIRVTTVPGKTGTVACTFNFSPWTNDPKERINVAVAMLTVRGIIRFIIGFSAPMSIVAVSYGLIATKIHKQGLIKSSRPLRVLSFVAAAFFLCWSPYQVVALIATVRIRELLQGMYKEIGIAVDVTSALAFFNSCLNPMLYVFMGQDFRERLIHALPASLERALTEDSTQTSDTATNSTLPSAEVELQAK

[2] = target: T2, formyl peptide receptor-like 1 (UniProt P25090 1-351, limits assumed); experiment: displacement of ^125I-WKYMVm on FPRL1-expressing RBL-2H3 cells (FIG. 2B)
T2 sequence (looked up): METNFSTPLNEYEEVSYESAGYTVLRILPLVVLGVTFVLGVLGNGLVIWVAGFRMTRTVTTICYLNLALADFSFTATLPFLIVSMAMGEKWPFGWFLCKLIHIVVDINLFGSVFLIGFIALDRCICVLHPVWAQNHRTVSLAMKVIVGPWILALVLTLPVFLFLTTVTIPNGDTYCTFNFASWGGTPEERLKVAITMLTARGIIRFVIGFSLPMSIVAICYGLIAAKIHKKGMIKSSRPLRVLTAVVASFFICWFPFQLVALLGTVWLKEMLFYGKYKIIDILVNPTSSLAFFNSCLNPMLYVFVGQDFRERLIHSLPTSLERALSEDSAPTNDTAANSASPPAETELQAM

formyl peptide receptor [3] = target: T1, formyl peptide receptor; experiment: displacement of ^125I-WKYMVm on FPR-expressing RBL-2H3 cells (FIG. 2A)

Measured: binding

WKYMVE (C-terminal amide (-NH2)) [Trp-Lys-Tyr-Met-Val-Glu-NH2]
binds: all assays above

WKYMVR (C-terminal amide (-NH2)) [Trp-Lys-Tyr-Met-Val-Arg-NH2]
binds: all assays above

From patent US20070219139A1 (POSCO, published 2007)
